Source: PubChem BioAssay AID652259 (Drosophila RNAi Screening Center, 2013)
The screen tested about 22,000 reagents; shown is an unselected part of those that have a named target and a result. Of all reagents, 233 (1.1%) are marked active. 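Light values are raw, unnormalised plate reads; the ratio scores behind the reporter calls were not deposited.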 The numbers tell different reagents against one gene apart. No sequences are given here. Not given: the amount of reagent, the time to read-out, the dose of the treatment.

Purpose: 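Genome-wide hunt for genes that control Wingless pathway activity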 (primary screen)
Cells: Drosophila clone 8 imaginal disc epithelial cells
Knock-down reagent: long dsRNA against Drosophila genes
Challenge: pathway stimulated by co-transfected Wingless expression plasmid
Measured: 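Firefly luciferase from a tcf-site Wingless reporter, measured alongside co-transfected Renilla luciferase that tracks transfection; pathway stimulated by a Wingless plasmid; the firefly-to-Renilla ratio is not deposited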
Scale: firefly reporter light: higher = more Wg reporter light, before normalisation; Renilla control light: higher = more transfected or surviving cells
Hit rule: 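a knock-down is a candidate when at least two out of four statistical tests show it departing from its plate mean; one test alone signals a weak candidate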
Meaning of the calls: active = candidate regulator (raises or lowers reporter); inactive = not a candidate

CG17343 (GeneID 35180) #1 → firefly reporter light, replicate 1 = 3074; firefly reporter light, replicate 2 = 11497; Renilla control light, replicate 1 = 961; Renilla control light, replicate 2 = 3654; outcome = inactive
CG17343 (GeneID 35180) #2 → firefly reporter light, replicate 1 = 5.25e5; firefly reporter light, replicate 2 = 5.03e5; Renilla control light, replicate 1 = 1.14e5; Renilla control light, replicate 2 = 1.49e5; outcome = inactive
CG30472 (GeneID 246634) → firefly reporter light, replicate 1 = 8.99e5; firefly reporter light, replicate 2 = 8.40e5; Renilla control light, replicate 1 = 4.59e5; Renilla control light, replicate 2 = 5.59e5; outcome = inactive
ssp3 (GeneID 35149) #1 → firefly reporter light, replicate 1 = 2188; firefly reporter light, replicate 2 = 6952; Renilla control light, replicate 1 = 525; Renilla control light, replicate 2 = 3212; outcome = inactive
ssp3 (GeneID 35149) #2 → firefly reporter light, replicate 1 = 1606; firefly reporter light, replicate 2 = 6080; Renilla control light, replicate 1 = 864; Renilla control light, replicate 2 = 3680; outcome = inactive
CG2816 (GeneID 33595) → reporter change call, replicate 1 = Wg reporter activity raised; firefly reporter light, replicate 1 = 6120; firefly reporter light, replicate 2 = 8328; Renilla control light, replicate 1 = 884; Renilla control light, replicate 2 = 2485; outcome = inactive
CG15533 (GeneID 43612) → firefly reporter light, replicate 1 = 7168; Renilla control light, replicate 1 = 2755; outcome = inactive
CG6051 (GeneID 43271) → firefly reporter light, replicate 1 = 2986; firefly reporter light, replicate 2 = 4379; Renilla control light, replicate 1 = 941; Renilla control light, replicate 2 = 1459; outcome = inactive
Rab5 (GeneID 33418) → reporter change call, replicate 1 = Wg reporter activity raised; firefly reporter light, replicate 1 = 23498; Renilla control light, replicate 1 = 2656; outcome = active
mRpS14 (GeneID 117414) → firefly reporter light, replicate 1 = 20497; Renilla control light, replicate 1 = 9772; outcome = inactive
Cyp318a1 (GeneID 32172) → firefly reporter light, replicate 1 = 21850; Renilla control light, replicate 1 = 10380; outcome = inactive
Mms19 (GeneID 40626) → firefly reporter light, replicate 1 = 5255; Renilla control light, replicate 1 = 853; outcome = inactive
BI-1 (GeneID 38936) → firefly reporter light, replicate 1 = 2284; Renilla control light, replicate 1 = 1100; outcome = inactive

The list goes on; the last 3 above are carried over.
Cyp318a1 (GeneID 32172) → firefly reporter light, replicate 1 = 21850; Renilla control light, replicate 1 = 10380; outcome = inactive
Mms19 (GeneID 40626) → firefly reporter light, replicate 1 = 5255; Renilla control light, replicate 1 = 853; outcome = inactive
BI-1 (GeneID 38936) → firefly reporter light, replicate 1 = 2284; Renilla control light, replicate 1 = 1100; outcome = inactive
CG31698 (GeneID 318888) → firefly reporter light, replicate 1 = 8.25e5; firefly reporter light, replicate 2 = 7.36e5; Renilla control light, replicate 1 = 3.78e5; Renilla control light, replicate 2 = 3.39e5; outcome = inactive
CG5126 (GeneID 33306) → firefly reporter light, replicate 1 = 10826; Renilla control light, replicate 1 = 5868; outcome = inactive
CG17019 (GeneID 36425) → firefly reporter light, replicate 1 = 7100; Renilla control light, replicate 1 = 2722; outcome = inactive
CG34436 (GeneID 5740743) → firefly reporter light, replicate 1 = 7941; Renilla control light, replicate 1 = 3043; outcome = inactive
yellow-e3 (GeneID 41651) → firefly reporter light, replicate 1 = 10052; Renilla control light, replicate 1 = 1834; outcome = inactive
CG32590 (GeneID 318103) → firefly reporter light, replicate 1 = 23232; Renilla control light, replicate 1 = 12098; outcome = inactive
CG4281 (GeneID 31171) → firefly reporter light, replicate 1 = 3872; firefly reporter light, replicate 2 = 7240; Renilla control light, replicate 1 = 1185; Renilla control light, replicate 2 = 2978; outcome = inactive
Fer3HCH (GeneID 32260) → firefly reporter light, replicate 1 = 22148; Renilla control light, replicate 1 = 12469; outcome = inactive
Cyp6a19 (GeneID 36662) → firefly reporter light, replicate 1 = 12776; Renilla control light, replicate 1 = 4001; outcome = inactive
TM4SF (GeneID 37786) → firefly reporter light, replicate 1 = 11485; Renilla control light, replicate 1 = 4727; outcome = inactive
tef (GeneID 36920) #1 → firefly reporter light, replicate 1 = 18213; Renilla control light, replicate 1 = 5396; outcome = inactive
tef (GeneID 36920) #2 → firefly reporter light, replicate 1 = 7.97e5; firefly reporter light, replicate 2 = 7.71e5; Renilla control light, replicate 1 = 3.20e5; Renilla control light, replicate 2 = 3.08e5; outcome = inactive
CG8042 (GeneID 38886) → firefly reporter light, replicate 1 = 3140; Renilla control light, replicate 1 = 1312; outcome = inactive
ZIPIC (GeneID 43566) → firefly reporter light, replicate 1 = 2272; firefly reporter light, replicate 2 = 7403; Renilla control light, replicate 1 = 1122; Renilla control light, replicate 2 = 2443; outcome = inactive
CG13631 (GeneID 50073) → firefly reporter light, replicate 1 = 3492; firefly reporter light, replicate 2 = 8427; Renilla control light, replicate 1 = 2064; Renilla control light, replicate 2 = 3233; outcome = inactive
CG10336 (GeneID 35122) → firefly reporter light, replicate 1 = 5667; Renilla control light, replicate 1 = 2145; outcome = inactive
CG8586 (GeneID 35854) → firefly reporter light, replicate 1 = 12061; Renilla control light, replicate 1 = 4109; outcome = inactive
tous (GeneID 37582) → firefly reporter light, replicate 1 = 8101; Renilla control light, replicate 1 = 1795; outcome = inactive
CG13671 (GeneID 38932) → firefly reporter light, replicate 1 = 8500; Renilla control light, replicate 1 = 3696; outcome = inactive
